Measurements taken from patent US20080261267A1, “Cellulases from Rumen” (priority 2004, published 2008).
Some of these results come from one statement about several compounds together.

Columns and labels:
Assay type in all cases: biochemical
[1] = Xylanase activity of cell extracts
[2] = pH-dependent activity and pH stability; conditions: cell lysates, CMC
Description: (§1) FIG. 3 represents Table 3 giving an overview over the biochemical properties of the cellulases according to the invention. Reaction was performed at the optimum pH and temperature for each done using CMC as substrate. […] The values for clones pBKRR.1, 9, 11, 13, 14, 16 and 22 are depicted. For each clone the following data are given: • maximum pH at which the remaining activity after 24 h incubation at the indicate pH is >90% (column “Stable at pH”). […] Activity was measured after 2 h incubation and compared with a control reaction in buffer lacking dimethylsulfoxide, • detergent resistance given by the remaining activity in the corresponding buffer (optimum pH) containing the indicate detergent at a concentration for 0 to 3%. […]
(§2) FIG. 4 a-c represent the results of the determination of pH and temperature optima showing graphically views of the pH-dependence activity and temperature-dependence activity of the polypeptides according to the invention. The pH optima of rumial endoglucanases were measured under conditions described in Example 5: 4% CMC, 0.5 mL of 50 mM buffer at the corresponding pH and 0.1 mg E. coli cell lysates, for 5-30 min, at 40° C. Effect of temperature on endoglucanase activity was measured in 50 mM sodium acetate buffer pH 5.6. […]

[3] = Thermal activity and thermostability; conditions: at the pH optima; CMC
Description: as §1, §2

| Molecule | xylanase activity, times lower than that found with CMC [1] | loss of activity at pH values of >2 ([2]; 40° C.) [%] | pH of highest (maximal) activity ([2]; pH 3.5 to 10.5 at 40° C.) | loss of activity at temperatures higher than 50° C. [3] [%] |
| --- | --- | --- | --- | --- |
| pBKRR.14: rumen endoglucanase, sequences FIG. 16/24; also capable of hydrolyzing xylan (protein, Description of sequence sequence derived from genomic DNA library from rumen ecosystem, particularly amino acid sequence of clones pBKRR 14 and 20-1; RR14=RR20-1;(see Figure 24), also capable of hydrolyzing xylan) MINVLQHHPEVELSVDKTSVSFNRSGGEETFTVTSSTQPHVSADVSWVVVETGKIDKDHHTEVRVLAGANRKEASAGTLTVSCSDKKVSVSVKQEAFVAPSVASTTAVTPQMVFDAMGPGWNMGNHMDAISNGVSGETVWGNPKCTQATMDGVKAAGYKAVRICTTWEGHIGAAPAYALEQKWLDRVAEIVGYAEKAGLVAIVNTHHDESYWQDISKCYNNAANHEKVKDEVFSVWTQIAEKFKDKGEWLVFESFNEIQDGGWGWSDAFRKNPDAQYKVLNEWNQTFVDAVRSTGGQNATRWLGIPGYACNPGFTIAGLVLPKDYTTANRLMVAVHDYDPYDYTLKDPLIRQWGHTADADKRPSGDNEKAVVDVFNNLKAAYLDKGIPVYLGEMGCSRHTAADFPYQKYYMEYFCKAAADRLLPMYLWDNGAKGVGSERHAYIDHGTGQFVDEDARTLVGLMVKAVTTKDASYTLESVYNSAP | 20-40 times lower | > 60 | 5.6-6.0 pH | – |
| pBKRR.11: rumen endo-beta-1,4-glucanase, sequences FIG. 14/22 (protein, Description of sequence sequence derived from genomic DNA library from rumen ecosystem, particularly amino acid sequence of clones pBKRR 11, 10 and 12; RR10=RR11=RR12; (see Figure 22)) MRILKLFFIALITAAPIFSYAQTVDDMKSVFVDAHTWTASIKMGWNLGNALECQTGWNDKAFCWNPANNFNAETSWGNPKTTKEMLQAVREAGFDAVRIPVNWGAHISDESTCTIDAAWMNRVQEVVDWALQLGFKVLLNTHHEYWLEWHPTYDREQANNNKLAKIWMQVANRFKDYGPDLAFAGINEVHLDGKWNVPTEENTAVTNSYNQTFVNTVRATGGNNLYRNLVVQCYSCNPDYGLTGFVVPADKVENRLSIEYHYYRPWDYAGDAPKYYYWGEAYKQYGEVSTADNEAKVNADFARYKAAWYDKGLGVIMGEWGASQHYQVESKAKQLENLYYHFKTVREAAQKNNIATFVWDNNACGNGGDKFGIFDRNDNMSVAFPEALNAIQEASGQTVVDYSRQALQPSVVYQGDELMNWGEGKQLIIAGSKFAYFTAESKLMVTLDAEPGADYDMLQFAYGDWKSKPLMIISGRSYKGQVEPSKINGSRNTYTLFIGFKESSLNQLKDKGITLQGHGLRLRNVVVMPEGLVLGL | – | – | – | > 60 |
